Results are given in words; binding and its absence hold for the method and conditions named. In cells and extracts the contact can be indirect. Some binding calls cover weakened binding; strength is not graded here.

Sequences of proteins named here, by UniProt entry; tags and fusion partners are left off.
UniProt Q02248: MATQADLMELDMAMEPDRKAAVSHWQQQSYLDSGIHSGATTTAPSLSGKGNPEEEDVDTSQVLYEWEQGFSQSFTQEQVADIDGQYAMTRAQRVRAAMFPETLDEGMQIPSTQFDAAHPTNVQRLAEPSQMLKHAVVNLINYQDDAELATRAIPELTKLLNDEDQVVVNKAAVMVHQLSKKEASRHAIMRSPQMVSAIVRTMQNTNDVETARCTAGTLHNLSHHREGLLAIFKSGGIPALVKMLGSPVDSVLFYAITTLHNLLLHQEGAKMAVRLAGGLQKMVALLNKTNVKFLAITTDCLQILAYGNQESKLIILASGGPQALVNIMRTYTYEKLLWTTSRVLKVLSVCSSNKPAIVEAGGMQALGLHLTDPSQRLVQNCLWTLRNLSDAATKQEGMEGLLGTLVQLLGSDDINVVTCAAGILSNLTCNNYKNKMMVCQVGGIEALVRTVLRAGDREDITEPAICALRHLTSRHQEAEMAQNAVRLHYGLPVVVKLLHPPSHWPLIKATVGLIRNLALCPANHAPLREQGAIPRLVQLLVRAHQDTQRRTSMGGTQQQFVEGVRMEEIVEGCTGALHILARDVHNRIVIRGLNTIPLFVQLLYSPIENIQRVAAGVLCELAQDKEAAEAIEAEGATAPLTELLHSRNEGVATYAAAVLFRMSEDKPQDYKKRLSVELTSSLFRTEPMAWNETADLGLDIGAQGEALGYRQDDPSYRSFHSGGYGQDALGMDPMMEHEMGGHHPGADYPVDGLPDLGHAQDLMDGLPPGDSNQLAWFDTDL
UniProt P47806: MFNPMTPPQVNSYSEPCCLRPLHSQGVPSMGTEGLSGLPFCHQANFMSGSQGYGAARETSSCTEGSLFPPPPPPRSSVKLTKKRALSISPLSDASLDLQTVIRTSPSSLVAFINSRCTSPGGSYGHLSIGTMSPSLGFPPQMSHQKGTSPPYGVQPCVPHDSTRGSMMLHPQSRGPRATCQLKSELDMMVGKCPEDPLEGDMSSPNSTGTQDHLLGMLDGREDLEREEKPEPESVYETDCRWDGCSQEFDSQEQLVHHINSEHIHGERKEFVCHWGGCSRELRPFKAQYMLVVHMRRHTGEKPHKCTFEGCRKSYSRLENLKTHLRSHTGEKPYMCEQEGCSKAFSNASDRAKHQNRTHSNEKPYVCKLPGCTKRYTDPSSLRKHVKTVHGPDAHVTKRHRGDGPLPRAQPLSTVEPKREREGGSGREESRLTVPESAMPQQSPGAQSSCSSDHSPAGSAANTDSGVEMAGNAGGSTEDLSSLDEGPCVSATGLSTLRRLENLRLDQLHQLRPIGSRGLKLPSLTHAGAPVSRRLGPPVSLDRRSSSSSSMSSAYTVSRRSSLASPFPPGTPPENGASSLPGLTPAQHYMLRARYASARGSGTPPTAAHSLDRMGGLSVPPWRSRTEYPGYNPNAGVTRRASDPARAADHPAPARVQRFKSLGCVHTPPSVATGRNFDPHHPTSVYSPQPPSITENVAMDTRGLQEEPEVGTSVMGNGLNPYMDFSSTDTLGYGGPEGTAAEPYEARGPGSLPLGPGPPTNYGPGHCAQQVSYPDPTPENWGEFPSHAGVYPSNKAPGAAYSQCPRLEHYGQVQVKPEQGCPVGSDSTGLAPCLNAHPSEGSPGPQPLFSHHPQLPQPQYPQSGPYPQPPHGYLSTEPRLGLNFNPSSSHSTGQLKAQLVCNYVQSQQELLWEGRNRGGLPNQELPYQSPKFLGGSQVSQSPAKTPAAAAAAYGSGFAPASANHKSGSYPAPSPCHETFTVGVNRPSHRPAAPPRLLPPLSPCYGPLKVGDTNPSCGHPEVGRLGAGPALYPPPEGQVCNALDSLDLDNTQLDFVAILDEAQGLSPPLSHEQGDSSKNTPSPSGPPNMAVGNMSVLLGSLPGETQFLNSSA

The target of assay [1] is β-catenin (mouse (endogenous in primary Ptch+/- MB cells)) (UniProt Q02248). The assay is described as follows: co-IP; extracts of primary Ptch+/- MB cells treated with NaCl or LiCl (8 h); immunoprecipitated with anti-β-catenin antibody prebound to protein G-agarose; Gli1 detected by Western blot. A general note: Immunoblotting shows a protein as a band on a membrane.
Assay [2] has the same target. Put plainly: proximity ligation; primary Ptch+/- MB cells on μ-slides, NaCl or LiCl for 8 h; anti-Gli1 and anti-β-catenin antibodies, Duolink In Situ PLA probes; confocal microscopy.

Regarding Gli1 (from UniProt P47806 1-1111), the binding result in assay [1] and in assay [2] was “binds” each time.

These data come from article PMC4320815.
